# Results reported in PubChem BioAssay AID2685 (National Center for Advancing Translational Sciences (NCATS), 2010).
# The other results are listed elsewhere or left out. The main result of the screen is listed elsewhere. These columns were measured beside it and carry no call. Most of these compounds were active or inconclusive in the main read-out, so they are no random draw. Potencies come from curve fits of mixed quality, noted in brackets.
# Assay: qHTS Assay for Lipid Storage Modulators in Drosophila S3 Cells;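 on cell number change: cells counted by Cell Tracker Red CMTPX staining in the red channel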
# Conditions: BODIPY lipid droplet fluorescence, 18-24 h; for cell number change: measured here: cell count max response, cells fed with added oleic acid
# How it was run: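 Drosophila S3 cells loaded with oleic acid (400 uM, as added) and compounds at several concentrations; lipid droplets imaged by 488-nm laser-scanning cytometry, 500–530 nm intensity and object ratio to cell channel. Percent activity normalized to 20 uM Triacsin C.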
# [1] = measured here: cell number channel AC50, cells fed with added oleic acid
# [2] = measured here: lipid fluorescence (Fed channel) AC50, cells fed with added oleic acid
Compound,cell number change [%],AC50 [1],AC50 [2]
CCCc1cc(C(=O)NNC(=S)NC(C)c2ccccc2)cs1 (centres undefined),-53.8,"18.4 µM [falling, partial curve]","14.6 µM [falling, partial curve]"
c1ccc(SCCCCN2CCOCC2)cc1,-0.787,,"29.1 µM [rising, partial curve, poor fit]"
CCOc1ccccc1NC(=O)CN1CCC(NC(=O)c2ccccc2C)CC1,8.46,,"0.103 µM [rising, partial curve, poor fit]"
CCc1n[nH]c(=O)c2cc3cc(OC)ccc3n12,12.5,,"29.1 µM [falling, single point]"
Cn1c(=O)c2[nH]c(SCc3ccccn3)nc2n(C)c1=S,-39.2,"18.4 µM [falling, single point]","29.1 µM [falling, single point]"
S=C(NCc1ccco1)N1CCN(Cc2ccc(Cl)cc2Cl)CC1,1.14,,"16.4 µM [rising, single point]"
O=C(CCN1C(=O)c2ccccc2S1(=O)=O)Nc1nc2c(s1)CCCC2,-10.6,,"0.517 µM [rising, single point]"
Cc1ccc(-n2c(Cc3ccccc3)n[nH]c2=S)cc1,-21.3,,"0.146 µM [rising, partial curve, poor fit]"
Cc1ccc(NS(=O)(=O)c2cc(-c3cc(C)no3)ccc2C(C)C)nc1,-13.7,,"29.1 µM [rising, single point]"
COc1cccc(NC(=O)c2nc(SC)ncc2Cl)c1,5.46,,
O=C(NCN1CCCCC1)c1cccnc1,-22.2,,"1.46 µM [falling, full curve]"
Cc1ccc(C)n1-c1ccsc1C(=O)CC#N,26.4,,"0.103 µM [rising, full curve, poor fit]"
CCCn1c(N)c(C(=O)CSc2nc3ccccc3c(=O)n2Cc2ccccc2)c(=O)[nH]c1=O,8.79,,"0.103 µM [rising, full curve, poor fit]"
COc1ccc(CCn2nc(C)c([N+](=O)[O-])c2C)cc1,20.6,,"35.5 µM [rising, single point]"
CS(=O)(=O)N1CCN(C(=O)Nc2ccccc2)CC1,-11.4,,"1.3 µM [falling, full curve]"
CC(C)(C)c1ccc(Oc2ccc(NC(=O)c3ccccc3C(=O)O)cn2)cc1,6.21,,"1.84 µM [rising, single point]"
O=C1NC[C@H](c2ccccc2)N(CC2CCCCC2)C1=O,20.2,,
O=C(N/N=C/c1ccc([N+](=O)[O-])cc1)c1cc2ccccc2o1,-0.961,"0.00461 µM [rising, full curve, poor fit]","0.461 µM [rising, full curve, poor fit]"
CN(C)CCOc1ccc(Cl)cc1C(C)(C)C,-40,"29.1 µM [falling, single point]","29.1 µM [falling, single point]"
COc1ccc(-c2cccc(C(=O)N3CCOCC3)c2)cc1,20.1,,"29.1 µM [rising, single point]"
O=C(CC1C(=O)NCCN1C(=O)c1ccccc1)Nc1cc(Cl)ccc1Cl (centres undefined),,"2.91 µM [rising, partial curve]","6.51 µM [rising, single point]"

Compound,cell number change [%],AC50 [1],AC50 [2]
CCOC(=O)c1c(C2CCN(C(=O)OCC)CC2)nc2ccccn12,-9.35,,"29.1 µM [falling, single point]"
O=C(Nc1ccccc1C(F)(F)F)NC1CCCCCCC1,,"6.51 µM [rising, single point]","6.51 µM [rising, single point]"
Cc1ccc(-c2cc(C(=O)NCC3CCCO3)c3ccccc3n2)cc1C (centres undefined),56.8,"6.51 µM [rising, partial curve, poor fit]","6.51 µM [rising, partial curve, poor fit]"
COC(=O)c1ccc2c(C)c(C(C)(C)O)[nH]c2c1,12.9,,"29.1 µM [rising, single point]"
Brc1ccc(-c2nc(-c3ccccn3)no2)o1,3.09,,
S=c1[nH]ncn1/N=C/c1ccc(Br)cc1,-12.5,,
O=C(NNC(=O)c1cnccn1)c1ccc(Cl)c(Cl)c1,-11.6,,"18.4 µM [falling, single point]"
CC12CC3(C)CC(C)(C1)CC(C(=O)Nc1nn[nH]n1)(C2)C3,0.779,"1.3 µM [falling, partial curve]",
CCCN(CC(=O)Nc1cccc(Br)c1)CC(=O)Nc1ccc(F)c(F)c1F,-21.6,,"18.4 µM [falling, single point]"
O=c1cc(CN2CCN(c3ccccc3F)CC2)c2cc3c(cc2o1)CCCC3,,,"0.164 µM [rising, full curve, poor fit]"
COc1ccc(CCNC(=O)CN2CCN(S(=O)(=O)c3ccc(Cl)cc3)CC2)cc1OC,24.1,,
CN(CC(N)=O)S(=O)(=O)c1ccc(F)cc1,-23.8,,"4.61 µM [falling, single point]"
O=C(Nc1cccc(F)c1)N1CCCCCC1,16.8,,
Cc1occc(=O)c1OCc1ccc(F)cc1,49.5,"10.3 µM [rising, partial curve]",
CCN(CC)S(=O)(=O)c1cccc(NC(=O)c2ccccc2Br)c1,,"0.82 µM [rising, single point]","29.1 µM [rising, single point]"
CCOC(=O)c1ccc(NC(=O)COc2ccc(CNCCO)cc2OCC)cc1,13.2,,"20.6 µM [falling, single point]"
O=C(N/C=C\c1ccccc1)NCc1ccc(Cl)cc1Cl,-29.1,,
CCc1ccccc1NC(=O)CC1S/C(=N\c2nccs2)N(CC)C1=O (centres undefined),-15.2,,"5.8 µM [rising, partial curve]"
COc1cccc(/C=C/C(=O)c2c(O)cc(C)oc2=O)c1O,2.56,,"0.0731 µM [falling, full curve, poor fit]"
O=C(CSc1nnc(CNc2ccc(F)cc2)n1CC1CCCO1)N1CCOCC1 (centres undefined),-3.63,,"0.731 µM [falling, single point]"

# 2 records picked at random from those above:
Compound,cell number change [%],AC50 [1],AC50 [2]
CCOC(=O)c1ccc(NC(=O)COc2ccc(CNCCO)cc2OCC)cc1,13.2,,"20.6 µM [falling, single point]"
COc1ccc(CCNC(=O)CN2CCN(S(=O)(=O)c3ccc(Cl)cc3)CC2)cc1OC,24.1,,
